Values of other authors as cited in patent publication US20260240800A1, “ELAFIBRANOR FOR THE TREATMENT OF PRIMARY BILIARY CHOLANGITIS” (Genfit, priority 2023, published 2026).
At least one compound was matched to its structure with a doubt left.

Tested on: patients with PBC
Conditions: cited from earlier work

CC[C@H]1[C@@H](O)[C@@H]2[C@H](CC[C@]3(C)[C@@H]([C@H](C)CCC(=O)O)CC[C@@H]23)[C@@]2(C)CC[C@@H](O)C[C@@H]12 [Obeticholic acid, obeticholic acid]
effect on ALP (PBC patients): reduce ALP

C[C@H](CCC(=O)O)[C@H]1CC[C@H]2[C@@H]3[C@@H](O)C[C@@H]4C[C@H](O)CC[C@]4(C)[C@H]3CC[C@]12C [UDCA, ursodeoxycholic acid]
effect on ALP and bilirubin levels (PBC patients): improve ALP and bilirubin levels
treated patients with a suboptimal response (UDCA-treated patients (Ali et al. 2015)): up to 40%
patients in whom ALP remains elevated (patients currently treated with or intolerant to UDCA (Lammers et al. 2014)): up to 70%
